Data as given in PMC6966473.
No constants are given. Whether binding was seen depends on the method and setting. In cells and extracts the contact can be indirect. A result given as binding can be weak or reduced; the word gives no strength. For part of these data: Tags and fused reporters may be left off the sequences shown.

Legend:
RASSF10-EYFP (human) = molecular target: T1, RASSF10-EYFP (human) (UniProt A6NK89); test: co-IP; wt-RASSF10 held on GFP-Trap, ASPP1/2 co-precipitated, RASSF10D237-362 as competitor (Figure S3c)
T1 sequence: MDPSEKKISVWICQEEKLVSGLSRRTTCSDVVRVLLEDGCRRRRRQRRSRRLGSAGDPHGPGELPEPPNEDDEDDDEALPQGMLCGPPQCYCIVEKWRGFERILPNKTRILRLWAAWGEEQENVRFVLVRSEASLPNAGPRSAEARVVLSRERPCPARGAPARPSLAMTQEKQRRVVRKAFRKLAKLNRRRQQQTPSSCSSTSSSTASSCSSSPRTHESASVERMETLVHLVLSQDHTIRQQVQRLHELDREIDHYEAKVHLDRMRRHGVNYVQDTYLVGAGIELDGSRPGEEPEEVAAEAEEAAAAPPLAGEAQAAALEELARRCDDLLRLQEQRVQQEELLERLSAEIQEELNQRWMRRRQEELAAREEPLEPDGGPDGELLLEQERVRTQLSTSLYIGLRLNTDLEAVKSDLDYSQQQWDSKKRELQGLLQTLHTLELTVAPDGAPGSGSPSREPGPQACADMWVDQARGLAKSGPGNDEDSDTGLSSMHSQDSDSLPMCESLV

RASSF10D1-133 (human) = molecular target: T2, RASSF10D1-133 (human) (UniProt A6NK89); test: co-IP; co-precipitation of ASPP1/2 with RASSF10 or RASSF10 domain mutants (Figure S3a); tags and cells not given
T2 sequence: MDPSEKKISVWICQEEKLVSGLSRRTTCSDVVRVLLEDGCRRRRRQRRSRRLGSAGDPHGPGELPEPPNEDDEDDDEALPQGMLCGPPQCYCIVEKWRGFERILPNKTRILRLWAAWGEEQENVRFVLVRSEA

[1] = molecular target: T3, RASSF10, overexpressed (tag not stated) (human) (UniProt A6NK89); test: pull-down; RASSF10 overexpressed in HEK cells and pulled down (GFP-Trap or Glutathione-Sepharose; which in which panel not told); overexpressed (Figure 4b) or endogenous (Figure 4c) ASPP1/2 detected by Western blot
T3 sequence: T1 sequence

Substance | binding (RASSF10-EYFP (human)) | binding (RASSF10D1-133 (human)) | binding [1]
ASPP1 (experiments of Figure S3) | binds | binds weakly | 
ASPP1, overexpressed (tag not stated) |  |  | binds
